Values of other authors, collected in US20040072211A1, “Methods for identifying ligands using waterlogsy NMR” (PHARMACIA & UPJOHN COMPANY, priority 2002, published 2004).

The chains behind the UniProt entries cited, without tags or fusion partners. Residues count along the entry.
UniProt P02768, 25-609: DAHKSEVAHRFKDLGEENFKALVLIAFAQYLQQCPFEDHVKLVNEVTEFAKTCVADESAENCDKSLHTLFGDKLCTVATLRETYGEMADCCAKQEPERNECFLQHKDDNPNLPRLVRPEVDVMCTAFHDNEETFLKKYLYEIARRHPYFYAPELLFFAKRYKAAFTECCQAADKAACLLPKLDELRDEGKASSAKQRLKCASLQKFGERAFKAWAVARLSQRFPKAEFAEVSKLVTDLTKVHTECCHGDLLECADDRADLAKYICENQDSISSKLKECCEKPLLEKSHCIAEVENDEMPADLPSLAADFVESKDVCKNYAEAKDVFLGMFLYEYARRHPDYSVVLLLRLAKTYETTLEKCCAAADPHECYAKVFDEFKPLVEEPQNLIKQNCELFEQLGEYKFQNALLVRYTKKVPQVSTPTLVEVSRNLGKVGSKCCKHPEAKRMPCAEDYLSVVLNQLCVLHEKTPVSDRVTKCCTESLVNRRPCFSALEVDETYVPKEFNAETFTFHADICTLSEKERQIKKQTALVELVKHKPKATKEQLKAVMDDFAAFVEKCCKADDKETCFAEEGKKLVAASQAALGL

Target: Human Serum Albumin (HSA) site II (Homo sapiens, UniProt P02768)
Settings: literature knowledge; cited from earlier work

COc1ccc2cc([C@H](C)C(=O)O)ccc2c1 [naproxen]
Binding site on HSA: bind to HSA on site II
